Data as given in PubChem BioAssay AID1508597 (Cure First, 2020)
Purpose: 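Knock-downs altering ovarian cancer cell survival with or without PARP inhibitor rucaparib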 (primary screen). Cell system: human ovarian carcinoma lines grown from tumours: OCI-P5x (papillary serous) and OCI-C5x (clear cell). Knock-down reagent: siRNA pool against human genes, 1.25 pmol siRNA per well. Timing: 72 h or 96 h, depending on the cell culture. Conditions: rucaparib 20 µM (about IC30) or vehicle, present until read-out. Measurement: 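Luminescent ATP-based viability assay read 72 or 96 h after transfection, depending on culture, given as normalised percent viability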. Scale: viability, normalised: higher = more viable cells remaining. Active means: 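a well counts as a hit if its normalised viability is under 80 percent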. Calls: active = viability under 80%; inactive = viability 80% or more.
This is one part, drawn at random, of about 2,100 reagents. 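Calls flag viability under 80% in either arm, not effects specific to rucaparib; the reference for percent is not stated.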 Entries without a mark were called inactive. No sequences are given here. Not stated in the record: the 100% reference.

gene | rucaparib or vehicle | cell line | technical replicate | viability, normalised (%)
ALPK3 | Rucaparib | OCI-C5x (clear cell) | 1 | 42.2 (active)
ALPK3 | Rucaparib | OCI-C5x (clear cell) | 2 | 31.8 (active)
ALPK3 | Rucaparib | OCI-C5x (clear cell) | 3 | 37.9 (active)
ALPK3 | Rucaparib | OCI-P5x (serous) | 1 | 78.1 (active)
ALPK3 | Rucaparib | OCI-P5x (serous) | 2 | 77 (active)
ALPK3 | Rucaparib | OCI-P5x (serous) | 3 | 52.9 (active)
ALPK3 | Vehicle | OCI-C5x (clear cell) | 1 | 39.2 (active)
ALPK3 | Vehicle | OCI-C5x (clear cell) | 2 | 48 (active)
ALPK3 | Vehicle | OCI-C5x (clear cell) | 3 | 41.2 (active)
ALPK3 | Vehicle | OCI-P5x (serous) | 1 | 62.3 (active)
ALPK3 | Vehicle | OCI-P5x (serous) | 2 | 85.2
ALPK3 | Vehicle | OCI-P5x (serous) | 3 | 62.3 (active)
XRCC5 | Rucaparib | OCI-C5x (clear cell) | 1 | 60.4 (active)
XRCC5 | Rucaparib | OCI-C5x (clear cell) | 2 | 50.2 (active)
XRCC5 | Rucaparib | OCI-C5x (clear cell) | 3 | 47.3 (active)
XRCC5 | Rucaparib | OCI-P5x (serous) | 1 | 80.3
XRCC5 | Rucaparib | OCI-P5x (serous) | 2 | 75 (active)
XRCC5 | Rucaparib | OCI-P5x (serous) | 3 | 78.7 (active)
XRCC5 | Vehicle | OCI-C5x (clear cell) | 1 | 128
XRCC5 | Vehicle | OCI-C5x (clear cell) | 2 | 57 (active)
XRCC5 | Vehicle | OCI-C5x (clear cell) | 3 | 48 (active)
XRCC5 | Vehicle | OCI-P5x (serous) | 1 | 74 (active)
XRCC5 | Vehicle | OCI-P5x (serous) | 2 | 73.6 (active)
XRCC5 | Vehicle | OCI-P5x (serous) | 3 | 76.6 (active)

Taken from above.
ALPK3, rucaparib or vehicle Vehicle, cell line OCI-P5x (serous), technical replicate 2, viability, normalised (%): 85.2
Entry for XRCC5, rucaparib or vehicle Rucaparib, cell line OCI-P5x (serous), technical replicate 3 in “viability, normalised (%)”: 78.7 (active)
ALPK3, rucaparib or vehicle Vehicle, cell line OCI-C5x (clear cell), technical replicate 2, viability, normalised (%) = 48 (active)
XRCC5, rucaparib or vehicle Rucaparib, cell line OCI-P5x (serous), technical replicate 1, viability, normalised (%) = 80.3
ALPK3, rucaparib or vehicle Vehicle, cell line OCI-C5x (clear cell), technical replicate 1, viability, normalised (%): 39.2 (active)
Entry for ALPK3, rucaparib or vehicle Rucaparib, cell line OCI-P5x (serous), technical replicate 2 under “viability, normalised (%)”: 77 (active)

The listing continues:
gene | rucaparib or vehicle | cell line | technical replicate | viability, normalised (%)
PIK3R2 | Rucaparib | OCI-C5x (clear cell) | 1 | 38 (active)
PIK3R2 | Rucaparib | OCI-C5x (clear cell) | 2 | 43.5 (active)
PIK3R2 | Rucaparib | OCI-C5x (clear cell) | 3 | 46.4 (active)
PIK3R2 | Rucaparib | OCI-P5x (serous) | 1 | 121
PIK3R2 | Rucaparib | OCI-P5x (serous) | 2 | 85.7
PIK3R2 | Rucaparib | OCI-P5x (serous) | 3 | 89.6
PIK3R2 | Vehicle | OCI-C5x (clear cell) | 1 | 35.8 (active)
PIK3R2 | Vehicle | OCI-C5x (clear cell) | 2 | 43.7 (active)
PIK3R2 | Vehicle | OCI-C5x (clear cell) | 3 | 46.2 (active)
PIK3R2 | Vehicle | OCI-P5x (serous) | 1 | 74.5 (active)
PIK3R2 | Vehicle | OCI-P5x (serous) | 2 | 56.3 (active)
PIK3R2 | Vehicle | OCI-P5x (serous) | 3 | 71.9 (active)
IL23A | Rucaparib | OCI-C5x (clear cell) | 1 | 50 (active)
IL23A | Rucaparib | OCI-C5x (clear cell) | 2 | 35.7 (active)
IL23A | Rucaparib | OCI-C5x (clear cell) | 3 | 43.6 (active)
IL23A | Rucaparib | OCI-P5x (serous) | 1 | 61.6 (active)
IL23A | Rucaparib | OCI-P5x (serous) | 2 | 61.3 (active)
IL23A | Rucaparib | OCI-P5x (serous) | 3 | 59 (active)
IL23A | Vehicle | OCI-C5x (clear cell) | 1 | 47.8 (active)
IL23A | Vehicle | OCI-C5x (clear cell) | 2 | 54.7 (active)
IL23A | Vehicle | OCI-C5x (clear cell) | 3 | 56.8 (active)
IL23A | Vehicle | OCI-P5x (serous) | 1 | 56.8 (active)
IL23A | Vehicle | OCI-P5x (serous) | 2 | 67.6 (active)
IL23A | Vehicle | OCI-P5x (serous) | 3 | 104
RCOR1 | Rucaparib | OCI-C5x (clear cell) | 1 | 44.8 (active)
RCOR1 | Rucaparib | OCI-C5x (clear cell) | 2 | 31.3 (active)
RCOR1 | Rucaparib | OCI-C5x (clear cell) | 3 | 38.8 (active)
RCOR1 | Rucaparib | OCI-P5x (serous) | 1 | 28.8 (active)
RCOR1 | Rucaparib | OCI-P5x (serous) | 2 | 31 (active)
RCOR1 | Rucaparib | OCI-P5x (serous) | 3 | 40.8 (active)
RCOR1 | Vehicle | OCI-C5x (clear cell) | 1 | 35.5 (active)
RCOR1 | Vehicle | OCI-C5x (clear cell) | 2 | 30.5 (active)
RCOR1 | Vehicle | OCI-C5x (clear cell) | 3 | 34.4 (active)
RCOR1 | Vehicle | OCI-P5x (serous) | 1 | 34.9 (active)
RCOR1 | Vehicle | OCI-P5x (serous) | 2 | 45 (active)
RCOR1 | Vehicle | OCI-P5x (serous) | 3 | 70.1 (active)
